Results published in patent publication US20060153936A1, “Flavonoid solubilizing agent and method of solubilizing flavonoid” (priority 2003, published 2006).
At least one compound was matched to its structure with a doubt left.

Test: Rutin dissolution amount with solubilizing agent (Example 2)
Type: physicochemical
Details: without additive; rutin 100 mg in ultrapure water 10 mL; 80° C. one hour, equilibrated 10° C. 48 hours

Question: For C[C@@H]1O[C@@H](OC[C@H]2O[C@@H](Oc3c(-c4ccc(O)c(O)c4)oc4cc(O)cc(O)c4c3=O)[C@H](O)[C@@H](O)[C@@H]2O)[C@H](O)[C@H](O)[C@H]1O [Rutin, rutin], which Rutin dissolution amount is on record?
Answer: The Rutin dissolution amount was 3.0 mg/100 mL.
